{"sequences": {"note": "By UniProt entry, the sequences of proteins in these tests, tags left out. Residues count along the entry.", "UniProt P01375, residues 77-233": "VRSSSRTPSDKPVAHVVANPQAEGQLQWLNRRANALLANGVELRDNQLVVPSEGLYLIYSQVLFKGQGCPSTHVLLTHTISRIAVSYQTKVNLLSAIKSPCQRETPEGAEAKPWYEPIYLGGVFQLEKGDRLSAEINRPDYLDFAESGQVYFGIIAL"}, "source": "paper PMC8280128", "about": "“Antioxidant and food additive BHA prevents TNF cytotoxicity by acting as a direct RIPK1 inhibitor” (Cell Death & Disease, 2021)", "binders": {"B1": {"name": "TRADD (protein, UniProt Q3U0V2 1-310)", "chain": "MAAGQNGHEEWVGSAYLFLESAVDKVILSEAYTDPKKKVAIYKALQTALSESGDSSDVLQILKIHCSDPQLIVQLRFCGRVLCGRFLQAYREGALRTALQRCMAPALAQEALRLQLELRAGAEQLDSWLTDEERCLNYILAQKPDRLRDEELAELEDELCKLTCDCTGQGGAIQVASAGSKFPVSSPTEEKPLPAACQTFLFHGQLVVNRPLTLQDQQTFARSVGLKWRRVGRSLQRNCRALRDPALDSLAYEYERDGLYEQAFQLLRRFMQAEGRRATLQRLVEALEENELTSLAEDLLGQAEPDGGLA"}}, "target": "FLAG-tagged human TNF (human) (UniProt P01375)", "assay": "co-IP; TNFR1 complex I IP: cells (MEFs; human HT-29 and BT549) stimulated with 1 µg/ml FLAG-hTNF, lysed in NP-40 lysis buffer (10% glycerol, 1% NP-40, 150 mM NaCl, 10 mM Tris-HCl pH 8), FLAG M2 affinity gel overnight, IPs treated with USP21, immunoblot; cells pretreated or not with IKKi, TBK1i, zVAD-fmk, BHA, other antioxidants, rotenone or NDGA; only the target purified", "note": "Results are given in words; binding and its absence hold for the method and conditions named. In cells and extracts the contact can be indirect. Some results given as binding are weak or reduced against the parent protein; the word gives no strength.", "data": [{"binder": "B1", "values": [{"measurement": "binding", "value": "binds"}]}]}
